# Experimental data published in PubChem BioAssay AID540276 (National Center for Advancing Translational Sciences (NCATS), 2011).
# Out of some 300,000 compounds screened, about 5,400 (1.8%) were called active. The inconclusive results got no clear call from the source; some entries with a clear call stand among them for comparison. The call rests on the fitted dose curve; tested in HEK293 cells. Where the call is inconclusive, the potency comes from a doubtful curve fit.
# Assay: qHTS for inhibitors of binding or entry into cells for Marburg Virus
# Settings: Marburg virus pseudotyped entry inhibition, cell reporter; series mostly up to 37.8 µM
# Potency means the concentration at half of the fitted maximal effect.
row,Compound,Potency
1,COc1ccc(-c2cn3ccc4ccccc4c3n2)cc1,inactive
2,Cn1c(=O)c([N+](=O)[O-])c(-n2cnc3ccccc32)c2ccccc21,"inconclusive: 35.5 µM [inhibitor, single point]"
3,COc1cccc(CNC(=O)Cn2ncn3nc(-c4cccs4)cc3c2=O)c1OC,inactive
4,O=C(NCC(c1ccco1)N1CCN(c2ccccc2F)CC1)C1CCCCC1 (stereo not drawn),"inconclusive: 31.6 µM [inhibitor, single point]"
5,O=C(Cc1ccsc1)NCc1ccccc1F,inactive
6,Cc1ccc(CNC(=O)Cc2c(C)c3c(cc(C)c4c(C)coc43)oc2=O)cc1,inactive
7,O=C(c1ccc(-c2cccc(Cl)c2Cl)o1)N1CCOCC1,"inconclusive: 5.62 µM [activator, single point]"
8,CCCn1ncc([C@@H]2C[C@H]3CN(Cc4cccc(Cl)c4)C(=O)[C@]34CCCN24)c1C,"inconclusive: 10 µM [inhibitor, partial curve, poor fit]"
9,CC(=O)c1ccc(N2CCN(C(=O)c3cc(C)on3)CC2)cc1,"inconclusive: 1.16 µM [inhibitor, single point]"
10,O=C(Cc1ccccc1)NC(=S)Nc1cc(C(F)(F)F)ccc1Cl,"inconclusive: 6.31 µM [inhibitor, single point]"
11,COc1ccc(S(=O)(=O)N2CCC(C(=O)NCCC3=CCCCC3)CC2)cc1OC,"inconclusive: 29.1 µM [activator, single point]"
12,Cc1ccsc1C(=O)N1CCC(CO)(Cc2ccccc2)CC1,"inconclusive: 1.12 µM [activator, partial curve, poor fit]"
13,O=C(CCN1C(=O)/C(=C/c2ccccc2)SC1=S)NC1CCS(=O)(=O)C1 (stereo not drawn),inactive
14,CCOC(=O)c1ccc(NC(=S)N2CCC(O)CC2)cc1,"inconclusive: 22.4 µM [activator, single point]"
15,CCOC(=O)c1c(N)sc2c1CCC1C(=O)N(C3CCCCC3)C(=O)C21 (stereo not drawn),inactive
16,COc1ccc(C(=O)NCC(=O)OCc2cccc(Br)c2)cc1,"inconclusive: 6.51 µM [activator, single point]"
17,COC(=O)c1ccc(CSc2nnc(NC(C)C)s2)cc1,"inconclusive: 22.4 µM [inhibitor, partial curve, poor fit]"
18,CCCCCn1c(CCNC(=O)c2ccc(F)cc2)nc2ccccc21,"inconclusive: 7.94 µM [inhibitor, partial curve, poor fit]"
19,O=C1CN(C(=O)CN2C(=O)NC3(CCCCC3)C2=O)c2ccccc2N1,"inconclusive: 17.8 µM [activator, single point]"
20,O=C(O)CCCn1cc(NC(=O)COc2cccc(Cl)c2)cn1,"inconclusive: 1.26 µM [inhibitor, single point]"
21,Cc1csc(NC(=O)NC2(C(F)(F)F)Oc3ccccc3O2)n1,"inconclusive: 3.66 µM [inhibitor, partial curve, poor fit]"
22,O=C1/C(=C/c2ccc(O)c([N+](=O)[O-])c2)SC(=S)N1Cc1ccccc1,inactive

row,Compound,Potency
1,COc1ccc(N(C)S(=O)(=O)c2cccc(C(=O)Nc3nc4ccccc4[nH]3)c2)cc1,"inconclusive: 7.08 µM [inhibitor, partial curve, poor fit]"
2,Cc1ccccc1N(C(=O)Cc1cccs1)C(C(=O)NC1CCCCC1)c1cn(C)nc1C (stereo not drawn),"inconclusive: 5.62 µM [activator, single point]"
3,CC(C)CCNc1nc2c(c(=O)n(Cc3cccc(F)c3)c(=O)n2C)n1C,inactive
4,CCCn1c(C)cc(C(=O)COC(=O)c2ccc[nH]c2=O)c1C,"inconclusive: 5.62 µM [inhibitor, full curve, poor fit]"
5,Cc1cc(C)cc(OCC(=O)N(Cc2cccs2)c2ccc(Cl)cc2)c1,inactive
6,O=C(NCc1ccco1)c1csc(Nc2ccccc2Cl)n1,inactive
7,O=C(CCl)Nc1ccc(S(=O)(=O)NC2=NCCCCC2)cc1,"inconclusive: 7.94 µM [inhibitor, partial curve, poor fit]"
8,O=C(Nc1nc2ccccc2[nH]1)Nc1ccccc1F,"inconclusive: 7.94 µM [inhibitor, partial curve, poor fit]"
9,COc1ccc(-n2c(C)c(C(C)=O)c3cc(OC(=O)COc4ccccc4)ccc32)cc1,"inconclusive: 7.08 µM [activator, partial curve, poor fit]"
10,CCCCOc1ccc(C(=O)Nc2ccc(SC(F)F)cc2)cc1OC,inactive
11,COc1ccc(OC(=O)c2cn(C)nc2C(F)(F)F)cc1,"inconclusive: 6.31 µM [inhibitor, single point]"
12,O=C(COC(=O)C1CCN(S(=O)(=O)c2ccc3c(c2)OCCO3)CC1)NC1CCS(=O)(=O)C1 (stereo not drawn),"inconclusive: 1.26 µM [activator, single point]"
13,CSCCC(NS(=O)(=O)c1ccccc1F)C(=O)NCc1ccncc1 (stereo not drawn),inactive
14,COCCNc1ccc(N2C(=O)C3CCCCC3C2=O)cc1[N+](=O)[O-] (stereo not drawn),"inconclusive: 35.5 µM [inhibitor, single point]"
15,COc1ccccc1CN1CCN(Cc2ccc(Cl)cc2)CC1,active: 11.2 µM
16,CN(Cc1ccc(Cl)cc1Cl)C(=O)CN1C(=O)NC2(CCCC2)C1=O,"inconclusive: 35.5 µM [activator, single point]"
17,C[C@H](NC(=O)[C@@H]1Cc2ccccc2CN1C(=O)OC(C)(C)C)C(=O)NCC1CCCO1 (stereo partly drawn),"inconclusive: 2.82 µM [inhibitor, partial curve, poor fit]"
18,O=C(NC1CC2CCC(C1)N2Cc1nnnn1Cc1ccco1)NC12CC3CC(CC(C3)C1)C2 (stereo not drawn),"inconclusive: 6.51 µM [inhibitor, single point]"
19,O=C(Cn1cccc1C(=O)c1ccccc1)NCc1cccs1,inactive
20,C/C(=N\OC(=O)c1ccc(F)cc1)c1sc(-c2ccccc2)nc1C,"inconclusive: 4.47 µM [activator, full curve, poor fit]"
21,Cn1c(=O)c2[nH]c(Cc3cccc4ccccc34)nc2n(C)c1=O,"inconclusive: 35.5 µM [inhibitor, single point]"

# 3 structures from above, ordered by formula weight, descending:
row,Compound,Potency
6,O=C(NCc1ccco1)c1csc(Nc2ccccc2Cl)n1,inactive
4,CCCn1c(C)cc(C(=O)COC(=O)c2ccc[nH]c2=O)c1C,"inconclusive: 5.62 µM [inhibitor, full curve, poor fit]"
11,COc1ccc(OC(=O)c2cn(C)nc2C(F)(F)F)cc1,"inconclusive: 6.31 µM [inhibitor, single point]"
